Test results reported in paper doi:10.1101/2022.06.24.497539.
These are yes or no findings as the source states them, for the method shown. Binding seen in cells or lysates may run through a third protein. Some entries that bind do so weakly or less than the wild type.

Protein sequences, listed by entry. Tags and fused reporters are not part of them. Residues count along the entry.
UniProt P00367, residues 54-558: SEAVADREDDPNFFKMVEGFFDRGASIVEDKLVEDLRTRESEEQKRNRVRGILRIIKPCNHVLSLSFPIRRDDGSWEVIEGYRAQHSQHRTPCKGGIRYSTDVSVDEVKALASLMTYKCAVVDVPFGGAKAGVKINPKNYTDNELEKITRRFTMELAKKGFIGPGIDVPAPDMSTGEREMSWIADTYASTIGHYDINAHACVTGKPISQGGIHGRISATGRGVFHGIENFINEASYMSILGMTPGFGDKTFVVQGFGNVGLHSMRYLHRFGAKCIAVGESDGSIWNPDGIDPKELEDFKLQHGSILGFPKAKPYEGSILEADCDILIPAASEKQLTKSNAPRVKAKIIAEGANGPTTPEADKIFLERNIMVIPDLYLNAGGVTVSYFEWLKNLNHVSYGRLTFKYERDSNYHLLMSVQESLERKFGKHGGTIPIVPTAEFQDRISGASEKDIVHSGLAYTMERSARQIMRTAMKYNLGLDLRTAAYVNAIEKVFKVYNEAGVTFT
UniProt P26443, residues 54-558: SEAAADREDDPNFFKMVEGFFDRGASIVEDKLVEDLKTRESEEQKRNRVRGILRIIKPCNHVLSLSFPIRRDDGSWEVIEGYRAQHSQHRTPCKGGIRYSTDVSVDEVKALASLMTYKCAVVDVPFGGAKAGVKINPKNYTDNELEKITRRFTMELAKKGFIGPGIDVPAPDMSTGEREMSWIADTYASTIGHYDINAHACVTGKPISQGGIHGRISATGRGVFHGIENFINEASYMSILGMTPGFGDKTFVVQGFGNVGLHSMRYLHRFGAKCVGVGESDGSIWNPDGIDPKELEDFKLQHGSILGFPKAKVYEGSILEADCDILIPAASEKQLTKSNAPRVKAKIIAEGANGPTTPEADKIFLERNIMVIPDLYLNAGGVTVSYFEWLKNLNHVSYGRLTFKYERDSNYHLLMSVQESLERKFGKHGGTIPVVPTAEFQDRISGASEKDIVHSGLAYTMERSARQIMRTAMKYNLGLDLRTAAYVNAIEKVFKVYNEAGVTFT

Tests used:
Test in all cases: cross-linking
[1] = target: Glutamate dehydrogenase (DHE3), human (HEK293 mitochondria) (human (endogenous in HEK293)) (UniProt P00367)
[2] = target: Glutamate dehydrogenase (DHE3), mouse (mouse (endogenous in gastrocnemius muscle)) (UniProt P26443)
[3] = target: THIL (mouse (endogenous in gastrocnemius muscle)) (UniProt Q8QZT1)

Q: “Glutamate dehydrogenase (DHE3), human (HEK293 mitochondria) (from UniProt P00367 54-558) (enzyme)” was tested. Which binding [1] did it give?
A: binds

Q: Which binding [2] does the source give for “Glutamate dehydrogenase (DHE3), mouse (from UniProt P26443 54-558) (enzyme)” here?
A: binds

B1: THIL (enzyme, UniProt Q8QZT1 31-424)
chain: ASKPTLNEVVIVSAIRTPIGSFLGSLASQPATKLGTAAIQGAIEKAGIPKEEVKEVYMGNVIQGGEGQAPTRQATLGAGLPISTPCTTVNKVCASGMKAIMMASQSLMCGHQDVMVAGGMESMSNVPYVMSRGATPYGGVKLEDLIVKDGLTDVYNKIHMGNCAENTAKKMNISRQEQDTYALSSYTRSKEAWDAGKFASEITPITISVKGKPDVVVKEDEEYKRVDFSKVPKLKTVFQKENGTITAANASTLNDGAAALVLMTAEAAQRLNVKPLARIAAFADAAVDPIDFPLAPAYAVPKVLKYAGLKKEDIAMWEVNEAFSVVVLANIKMLEIDPQKVNIHGGAVSLGHPIGMSGARIVVHMAHALKPGEFGLASICNGGGGASALLIEKL
Q: Which binding [3] does the source give for B1 here?
A: binds
